Source: the supplement of paper PMC12819154, “High-throughput peptide-centric local stability assay extends protein–ligand identification to membrane proteins, tissues and bacteria” (Nature Structural & Molecular Biology, 2025)
The other results are listed elsewhere or left out. Most entries show no effect beyond the scatter of the controls.

By UniProt entry, the sequences of proteins in these tests, tags left out. Where a name states a change or a piece, a line headed by the entry shows the natural chain unless it says otherwise.
UniProt Q8BUI3: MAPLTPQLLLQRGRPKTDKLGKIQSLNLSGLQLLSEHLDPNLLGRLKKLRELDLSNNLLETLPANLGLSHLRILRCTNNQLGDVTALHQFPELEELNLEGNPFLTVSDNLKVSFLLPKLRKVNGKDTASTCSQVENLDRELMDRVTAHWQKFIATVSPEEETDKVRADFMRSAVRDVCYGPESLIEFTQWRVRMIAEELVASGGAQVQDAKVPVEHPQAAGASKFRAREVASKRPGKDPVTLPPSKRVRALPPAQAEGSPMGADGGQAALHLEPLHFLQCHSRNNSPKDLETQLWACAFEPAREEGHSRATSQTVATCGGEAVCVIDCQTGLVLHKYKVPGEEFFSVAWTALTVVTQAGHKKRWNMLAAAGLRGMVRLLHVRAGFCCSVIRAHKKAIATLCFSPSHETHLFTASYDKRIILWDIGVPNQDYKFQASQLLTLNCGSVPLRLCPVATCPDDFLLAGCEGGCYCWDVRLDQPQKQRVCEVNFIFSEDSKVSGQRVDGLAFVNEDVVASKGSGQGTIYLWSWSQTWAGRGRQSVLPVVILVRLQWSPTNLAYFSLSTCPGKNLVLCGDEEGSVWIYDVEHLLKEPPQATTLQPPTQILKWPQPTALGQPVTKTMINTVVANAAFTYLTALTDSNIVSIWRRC
UniProt Q8BRG8: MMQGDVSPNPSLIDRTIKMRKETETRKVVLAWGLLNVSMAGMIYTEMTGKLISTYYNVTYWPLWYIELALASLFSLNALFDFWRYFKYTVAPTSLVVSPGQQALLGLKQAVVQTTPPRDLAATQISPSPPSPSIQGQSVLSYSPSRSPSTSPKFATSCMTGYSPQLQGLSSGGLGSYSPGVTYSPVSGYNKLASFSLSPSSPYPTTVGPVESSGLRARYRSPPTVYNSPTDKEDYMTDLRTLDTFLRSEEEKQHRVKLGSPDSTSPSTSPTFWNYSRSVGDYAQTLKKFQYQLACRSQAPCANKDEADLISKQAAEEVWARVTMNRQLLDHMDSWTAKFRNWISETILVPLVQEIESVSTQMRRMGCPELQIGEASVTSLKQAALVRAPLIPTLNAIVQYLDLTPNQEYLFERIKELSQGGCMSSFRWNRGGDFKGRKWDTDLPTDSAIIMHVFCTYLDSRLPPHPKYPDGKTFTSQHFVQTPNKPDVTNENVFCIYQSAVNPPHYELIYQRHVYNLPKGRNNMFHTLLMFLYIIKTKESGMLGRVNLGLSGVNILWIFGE
UniProt Q8BKS9: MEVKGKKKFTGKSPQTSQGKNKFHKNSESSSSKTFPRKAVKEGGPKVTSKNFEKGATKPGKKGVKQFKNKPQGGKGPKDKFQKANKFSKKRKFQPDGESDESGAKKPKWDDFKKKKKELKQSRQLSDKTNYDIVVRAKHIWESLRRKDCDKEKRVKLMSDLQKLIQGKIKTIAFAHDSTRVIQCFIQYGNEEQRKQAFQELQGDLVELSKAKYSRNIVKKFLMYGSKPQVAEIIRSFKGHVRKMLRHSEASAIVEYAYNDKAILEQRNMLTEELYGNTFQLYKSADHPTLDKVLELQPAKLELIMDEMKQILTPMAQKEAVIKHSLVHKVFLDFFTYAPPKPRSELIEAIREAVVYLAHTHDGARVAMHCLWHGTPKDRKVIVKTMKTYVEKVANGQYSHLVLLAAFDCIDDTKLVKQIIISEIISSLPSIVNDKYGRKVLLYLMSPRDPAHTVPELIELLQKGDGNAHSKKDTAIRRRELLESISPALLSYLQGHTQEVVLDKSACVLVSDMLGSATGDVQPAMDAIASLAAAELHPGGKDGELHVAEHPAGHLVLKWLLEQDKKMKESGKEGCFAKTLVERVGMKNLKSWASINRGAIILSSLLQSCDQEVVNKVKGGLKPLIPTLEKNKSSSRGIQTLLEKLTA
UniProt Q8BQH4: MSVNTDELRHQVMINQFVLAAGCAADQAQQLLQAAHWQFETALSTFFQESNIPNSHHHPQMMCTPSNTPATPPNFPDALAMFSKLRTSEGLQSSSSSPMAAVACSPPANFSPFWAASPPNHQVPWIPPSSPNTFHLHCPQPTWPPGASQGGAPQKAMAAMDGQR
UniProt Q8BIX3: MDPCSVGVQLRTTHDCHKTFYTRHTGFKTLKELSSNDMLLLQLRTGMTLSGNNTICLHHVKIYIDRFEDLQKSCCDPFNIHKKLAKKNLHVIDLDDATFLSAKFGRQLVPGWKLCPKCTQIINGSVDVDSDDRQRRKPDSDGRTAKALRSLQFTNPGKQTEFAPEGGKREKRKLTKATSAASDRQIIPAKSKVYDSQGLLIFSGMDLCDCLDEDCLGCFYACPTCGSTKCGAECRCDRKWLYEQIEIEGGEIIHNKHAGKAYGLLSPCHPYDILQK
UniProt Q8BP07: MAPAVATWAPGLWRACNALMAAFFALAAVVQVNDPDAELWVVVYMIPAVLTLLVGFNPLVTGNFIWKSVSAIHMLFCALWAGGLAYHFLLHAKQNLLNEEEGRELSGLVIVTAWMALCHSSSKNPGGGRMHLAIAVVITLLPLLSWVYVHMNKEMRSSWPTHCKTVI
UniProt Q8BKT6: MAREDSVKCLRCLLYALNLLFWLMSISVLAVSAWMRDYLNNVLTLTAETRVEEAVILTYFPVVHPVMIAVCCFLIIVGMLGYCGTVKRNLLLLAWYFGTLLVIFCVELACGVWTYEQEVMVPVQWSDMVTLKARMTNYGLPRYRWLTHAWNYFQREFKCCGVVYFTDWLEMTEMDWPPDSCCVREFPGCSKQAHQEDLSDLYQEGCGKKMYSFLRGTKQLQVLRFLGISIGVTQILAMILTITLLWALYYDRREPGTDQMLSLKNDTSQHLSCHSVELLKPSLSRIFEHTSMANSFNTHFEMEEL
UniProt Q8BRM2: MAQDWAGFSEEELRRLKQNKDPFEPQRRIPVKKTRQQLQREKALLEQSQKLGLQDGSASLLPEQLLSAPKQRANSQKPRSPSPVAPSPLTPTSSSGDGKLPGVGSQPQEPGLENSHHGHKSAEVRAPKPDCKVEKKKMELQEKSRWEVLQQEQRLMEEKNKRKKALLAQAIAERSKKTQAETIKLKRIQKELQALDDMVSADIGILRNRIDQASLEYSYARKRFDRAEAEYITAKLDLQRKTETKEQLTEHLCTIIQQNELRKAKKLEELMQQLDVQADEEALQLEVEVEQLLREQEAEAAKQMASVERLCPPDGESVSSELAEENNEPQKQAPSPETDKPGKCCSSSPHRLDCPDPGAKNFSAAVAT
UniProt Q8BU04: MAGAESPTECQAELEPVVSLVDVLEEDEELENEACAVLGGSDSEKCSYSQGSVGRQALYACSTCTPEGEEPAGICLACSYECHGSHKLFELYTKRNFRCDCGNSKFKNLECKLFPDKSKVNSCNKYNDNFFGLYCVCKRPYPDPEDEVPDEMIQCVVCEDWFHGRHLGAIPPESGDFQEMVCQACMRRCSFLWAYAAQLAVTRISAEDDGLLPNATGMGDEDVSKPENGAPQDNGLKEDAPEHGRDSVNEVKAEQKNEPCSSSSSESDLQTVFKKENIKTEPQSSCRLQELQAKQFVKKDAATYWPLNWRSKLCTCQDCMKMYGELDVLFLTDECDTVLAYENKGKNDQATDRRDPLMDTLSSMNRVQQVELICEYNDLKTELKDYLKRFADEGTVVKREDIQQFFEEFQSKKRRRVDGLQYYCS
UniProt Q8BUV6: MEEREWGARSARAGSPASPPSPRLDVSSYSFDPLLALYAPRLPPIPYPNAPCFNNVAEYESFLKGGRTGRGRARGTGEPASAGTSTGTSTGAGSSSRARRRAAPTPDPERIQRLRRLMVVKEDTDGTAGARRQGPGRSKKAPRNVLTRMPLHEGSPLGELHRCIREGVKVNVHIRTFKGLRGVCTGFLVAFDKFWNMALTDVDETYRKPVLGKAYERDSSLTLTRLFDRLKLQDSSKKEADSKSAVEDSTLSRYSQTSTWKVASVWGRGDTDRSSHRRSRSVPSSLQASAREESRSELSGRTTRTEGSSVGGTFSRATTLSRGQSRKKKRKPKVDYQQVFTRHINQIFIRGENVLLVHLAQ
UniProt Q8BN78: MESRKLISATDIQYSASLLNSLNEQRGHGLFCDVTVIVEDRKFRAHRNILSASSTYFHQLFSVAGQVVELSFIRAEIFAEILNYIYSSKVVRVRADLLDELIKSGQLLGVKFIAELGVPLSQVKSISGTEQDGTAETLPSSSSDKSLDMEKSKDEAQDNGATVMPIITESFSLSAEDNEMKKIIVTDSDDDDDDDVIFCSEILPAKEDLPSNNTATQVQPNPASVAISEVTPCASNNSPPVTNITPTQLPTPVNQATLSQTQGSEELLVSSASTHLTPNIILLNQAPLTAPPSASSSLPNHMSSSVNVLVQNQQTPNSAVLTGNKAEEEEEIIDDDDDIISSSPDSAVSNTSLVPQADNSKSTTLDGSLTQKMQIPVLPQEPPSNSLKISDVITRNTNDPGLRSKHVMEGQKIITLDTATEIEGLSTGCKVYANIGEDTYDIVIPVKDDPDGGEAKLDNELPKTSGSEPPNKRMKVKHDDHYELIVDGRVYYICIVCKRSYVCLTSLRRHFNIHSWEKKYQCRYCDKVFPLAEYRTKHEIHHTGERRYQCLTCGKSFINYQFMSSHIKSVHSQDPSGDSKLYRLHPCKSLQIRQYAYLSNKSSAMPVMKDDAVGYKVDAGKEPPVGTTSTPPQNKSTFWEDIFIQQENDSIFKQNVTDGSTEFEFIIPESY
UniProt Q8BK08: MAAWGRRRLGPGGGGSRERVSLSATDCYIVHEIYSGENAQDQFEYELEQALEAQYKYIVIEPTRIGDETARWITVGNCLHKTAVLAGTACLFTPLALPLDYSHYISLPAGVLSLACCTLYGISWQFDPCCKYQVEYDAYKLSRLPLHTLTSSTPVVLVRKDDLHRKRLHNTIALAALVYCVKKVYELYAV
UniProt Q8BQ89: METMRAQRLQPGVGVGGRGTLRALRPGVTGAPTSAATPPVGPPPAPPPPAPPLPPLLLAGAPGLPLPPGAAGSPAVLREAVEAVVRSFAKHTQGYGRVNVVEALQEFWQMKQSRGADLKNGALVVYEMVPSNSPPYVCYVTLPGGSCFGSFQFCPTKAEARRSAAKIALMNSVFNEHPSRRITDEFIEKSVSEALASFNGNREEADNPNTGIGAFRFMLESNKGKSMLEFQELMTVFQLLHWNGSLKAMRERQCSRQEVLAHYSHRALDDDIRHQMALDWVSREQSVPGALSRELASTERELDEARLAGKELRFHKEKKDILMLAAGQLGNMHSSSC
UniProt Q8BNN1: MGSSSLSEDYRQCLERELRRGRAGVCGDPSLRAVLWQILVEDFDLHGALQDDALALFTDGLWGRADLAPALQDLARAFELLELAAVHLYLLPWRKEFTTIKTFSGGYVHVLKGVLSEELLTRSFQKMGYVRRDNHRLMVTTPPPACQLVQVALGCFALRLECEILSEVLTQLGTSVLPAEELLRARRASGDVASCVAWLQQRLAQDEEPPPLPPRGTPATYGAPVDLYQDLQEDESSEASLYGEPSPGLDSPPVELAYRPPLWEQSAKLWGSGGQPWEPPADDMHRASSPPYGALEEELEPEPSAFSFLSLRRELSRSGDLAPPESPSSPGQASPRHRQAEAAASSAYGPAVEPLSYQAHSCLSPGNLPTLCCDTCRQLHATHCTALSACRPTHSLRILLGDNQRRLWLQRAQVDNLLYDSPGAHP
UniProt Q8BU03: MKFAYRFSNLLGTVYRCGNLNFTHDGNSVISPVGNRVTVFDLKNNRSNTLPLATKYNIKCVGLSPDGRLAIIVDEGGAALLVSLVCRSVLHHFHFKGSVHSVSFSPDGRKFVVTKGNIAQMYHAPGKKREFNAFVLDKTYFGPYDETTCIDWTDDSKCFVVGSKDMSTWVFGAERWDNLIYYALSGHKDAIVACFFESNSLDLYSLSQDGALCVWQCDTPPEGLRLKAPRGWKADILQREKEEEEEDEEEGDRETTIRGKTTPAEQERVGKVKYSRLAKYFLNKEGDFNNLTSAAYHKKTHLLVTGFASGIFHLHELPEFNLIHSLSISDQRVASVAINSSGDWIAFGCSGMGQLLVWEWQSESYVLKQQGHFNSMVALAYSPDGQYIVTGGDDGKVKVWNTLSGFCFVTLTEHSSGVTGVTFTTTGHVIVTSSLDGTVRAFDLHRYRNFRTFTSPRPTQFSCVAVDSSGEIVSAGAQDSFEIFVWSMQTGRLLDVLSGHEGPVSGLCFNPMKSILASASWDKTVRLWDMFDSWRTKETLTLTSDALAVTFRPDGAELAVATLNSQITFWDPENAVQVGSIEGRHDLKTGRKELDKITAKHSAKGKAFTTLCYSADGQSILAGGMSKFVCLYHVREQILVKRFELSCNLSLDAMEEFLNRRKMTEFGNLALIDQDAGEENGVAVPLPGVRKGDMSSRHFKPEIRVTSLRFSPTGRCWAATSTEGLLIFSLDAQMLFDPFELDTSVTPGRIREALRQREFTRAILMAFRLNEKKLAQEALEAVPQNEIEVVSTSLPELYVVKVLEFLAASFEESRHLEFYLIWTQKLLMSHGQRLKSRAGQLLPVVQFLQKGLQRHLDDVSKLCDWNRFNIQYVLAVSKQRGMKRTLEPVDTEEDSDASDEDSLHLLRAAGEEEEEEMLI

compound: CN[C@@H]1C[C@H]2O[C@@](C)([C@@H]1OC)n1c3ccccc3c3c4c(c5c6ccccc6n2c5c31)C(=O)NC4 [staurosporine]; assay: log2 fold change of tryptic peptide abundance, ligand vs vehicle (limited proteolysis) (log2 ratio); higher = more trypsin-susceptible (destabilized); settings: ligand concentration: 20 uM; sample: mouse liver crude lysate; replicate design: treated separately

Target | log2 fold change
UniProt Q8BUI3 (peptide sequence: APLTPQLLLQR, peptide start residue: 2) | -0.0521
UniProt Q8BRG8 (peptide sequence: KFQYQLACR, peptide start residue: 288) | 0.277
UniProt Q8BTY1 (peptide sequence: ATLQAMDKR, peptide start residue: 406) | 0.247
UniProt Q8BST6 (peptide sequence: TADGLFHAPTQK, peptide start residue: 256) | -0.495
UniProt Q8BHY8 (peptide sequence: ILPDVNLGK, peptide start residue: 714) | -0.169
UniProt Q8BI22 (peptide sequence: YSLHGDSVQQR, peptide start residue: 1001) | 0.359
UniProt Q8BIZ0 (peptide sequence: RGPRPESFR, peptide start residue: 789) | 0.0339
UniProt Q8BRV5 (peptide sequence: DSTEEKSPR, peptide start residue: 193) | -0.638
UniProt Q8BKS9 (peptide sequence: FQPDGESDESGAKK, peptide start residue: 93) | -0.331
UniProt Q8BJH1 (peptide sequence: FNENAADR, peptide start residue: 129) | 0.317
UniProt Q8BQH4 (peptide sequence: AMAAMDGQR, peptide start residue: 156) | -0.0259
UniProt Q8BIX3 (peptide sequence: IYIDRFEDLQK, peptide start residue: 62) | 0.14
UniProt Q8BP07 (peptide sequence: SSWPTHCK, peptide start residue: 157) | -0.0231
UniProt Q8BKT6 (peptide sequence: NDTSQHLSCHSVELLKPSLSR, peptide start residue: 265) | -0.238
UniProt Q8BIW1 (peptide sequence: QLAIFCPHEALR, peptide start residue: 298) | -0.15
UniProt Q8BSN5 (peptide sequence: LKDSLFDLDGPK, peptide start residue: 133) | 0.145
UniProt Q8BRM2 (peptide sequence: LDCPDPGAK, peptide start residue: 352) | 0.296
UniProt Q8BTI7 (peptide sequence: SPLHMAAIHGR, peptide start residue: 308) | 0.701

Part of the list above, with each value named:
UniProt Q8BKT6 (peptide sequence: NDTSQHLSCHSVELLKPSLSR, peptide start residue: 265)
  log2 fold change: -0.238
UniProt Q8BIW1 (peptide sequence: QLAIFCPHEALR, peptide start residue: 298)
  log2 fold change: -0.15

(continued)

Target | log2 fold change
UniProt Q8BMA6 (peptide sequence: VTEELLTDNR, peptide start residue: 112) | 0.28
UniProt Q8BP71 (peptide sequence: EKLHGTVVEGR, peptide start residue: 237) | 0.325
UniProt Q8BU04 (peptide sequence: FADEGTVVK, peptide start residue: 390) | 0.148
UniProt Q8BMW7 (peptide sequence: TNDQSSHKL, peptide start residue: 408) | -0.337
UniProt Q8BS39 (peptide sequence: IKGLNEEVTSK, peptide start residue: 88) | 0.207
UniProt Q8BJ71 (peptide sequence: GLFEEAAK, peptide start residue: 620) | 0.142
UniProt Q8BUV6 (peptide sequence: YSQTSTWK, peptide start residue: 254) | 0.752
UniProt Q8BKF1 (peptide sequence: ALLEFAEGRPLGPR, peptide start residue: 794) | 0.671
UniProt Q8BN78 (peptide sequence: NTNDPGLR, peptide start residue: 396) | -0.229
UniProt Q8BK08 (peptide sequence: LPLHTLTSSTPVVLVR, peptide start residue: 144) | 0.242
UniProt Q8BQS4 (peptide sequence: VHLGIADLSAK, peptide start residue: 149) | 0.238
UniProt Q8BPM0 (peptide sequence: NIPQPTNALK, peptide start residue: 602) | -0.23
UniProt Q8BP92 (peptide sequence: HYAMQEAK, peptide start residue: 99) | -0.146
UniProt Q8BHZ4 (peptide sequence: KEPKPEPLPLESQQEHEQGGQK, peptide start residue: 201) | -0.225
UniProt Q8BQ89 (peptide sequence: EAVEAVVR, peptide start residue: 79) | 0.199
UniProt Q8BU27 (peptide sequence: GSGSSPGATDASR, peptide start residue: 39) | 0.0093
UniProt Q8BNN1 (peptide sequence: LWGSGGQPWEPPADDMHR, peptide start residue: 269) | 0.14
UniProt Q8BU03 (peptide sequence: EKEEEEEDEEEGDRETTIR, peptide start residue: 240) | 0.102
